{
  "source": "the supplement of paper PMC8728848",
  "binders": {"B1": {"name": "his-Lectin-24A (Drosophila melanogaster) (protein)", "chain": "MFRLSVLVLNLLLVSHEFSAGTAKIEIQPLPALCNGYCFPTLKPVMEYVAIHQDKWNTCTEILANEARKDQIQLNIQLDALKADVSNIKASQLSKDEKLDRMEREQFAMHESLETINRYLTVKLDRTKLQLEAIKNTMDYMKAQMDGYFSAINGVQCLQPGFEKIGDRYFYIEEDVELNWLDAQAKCRRMGGHLASIKTKQEFDAIVEKLDDSKSYFLGVNENTKTGDFVSAASGKSCLYHEWGPGEPHHNNDQERCVSILRKLMHVGNCTYEKRFICQYGI"}},
  "assay_in_all_cases": "glycan array binding signal (z-score within array); higher = stronger binding",
  "conditions_in_all_cases": "glycan notation: IUPAC condensed, linker removed",
  "key": {"[1]": {"target": "Gal(b1-3)GlcNAc(b1-2)Man(a1-3)[Gal(b1-3)GlcNAc(b1-2)Man(a1-6)]Man(b1-4)GlcNAc(b1-4)[Fuc(a1-6)]GlcNAc", "outline": "(§1)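 Arrays were curated from the Consortium for Functional Glycomics database, 3228 in total, and kept only where the protein sequence was available. Binding is expressed as a within-array Z-score. This score was averaged across arrays of the same protein sequence at different concentrations or buffers and across linkers, and negative values can be read as non-binding.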"}, "[2]": {"target": "Gal(b1-3)GlcNAc(b1-2)Man(a1-3)[GlcNAc(b1-4)][Gal(b1-3)GlcNAc(b1-2)Man(a1-6)]Man(b1-4)GlcNAc(b1-4)GlcNAc", "outline": "as §1"}, "[3]": {"target": "Gal(b1-3)GlcNAc(b1-2)[Gal(b1-3)GlcNAc(b1-6)]Man(a1-6)[Gal(b1-3)GlcNAc(b1-2)Man(a1-3)]Man(b1-4)GlcNAc(b1-4)GlcNAc", "outline": "as §1"}, "[4]": {"target": "Gal(b1-3)GlcNAc(b1-3)Gal(b1-3)GlcNAc", "outline": "as §1"}, "[5]": {"target": "Gal(b1-3)GlcNAc(b1-3)Gal(b1-4)Glc", "outline": "as §1"}, "[6]": {"target": "Gal(b1-3)GlcNAc(b1-3)Gal(b1-4)GlcNAc", "outline": "as §1"}, "[7]": {"target": "Gal(b1-3)GlcNAc(b1-3)Gal(b1-4)GlcNAc(b1-2)Man(a1-3)[Gal(b1-3)GlcNAc(b1-3)Gal(b1-4)GlcNAc(b1-2)Man(a1-6)]Man(b1-4)GlcNAc(b1-4)GlcNAc", "outline": "as §1"}, "[8]": {"target": "Gal(b1-3)GlcNAc(b1-3)Gal(b1-4)GlcNAc(b1-2)[Gal(b1-3)GlcNAc(b1-3)Gal(b1-4)GlcNAc(b1-6)]Man(a1-6)[Gal(b1-3)GlcNAc(b1-3)Gal(b1-4)GlcNAc(b1-2)Man(a1-3)]Man(b1-4)GlcNAc(b1-4)[Fuc(a1-6)]GlcNAc", "outline": "as §1"}, "[9]": {"target": "Gal(b1-3)GlcNAc(b1-3)Gal(b1-4)GlcNAc(b1-3)Gal(b1-4)GlcNAc(b1-2)[Gal(b1-3)GlcNAc(b1-3)Gal(b1-4)GlcNAc(b1-3)Gal(b1-4)GlcNAc(b1-6)]Man(a1-6)[Gal(b1-3)GlcNAc(b1-3)Gal(b1-4)GlcNAc(b1-3)Gal(b1-4)GlcNAc(b1-2)Man(a1-3)]Man(b1-4)GlcNAc(b1-4)[Fuc(a1-6)]GlcNAc", "outline": "as §1"}, "[10]": {"target": "Gal(b1-3)GlcNAc(b1-3)Gal(b1-4)GlcNAc(b1-6)[Gal(b1-3)GlcNAc(b1-3)]Gal(b1-4)Glc", "outline": "as §1"}, "[11]": {"target": "Gal(b1-3)GlcNAc(b1-3)Gal(b1-4)[Fuc(a1-3)]GlcNAc", "outline": "as §1"}, "[12]": {"target": "Gal(b1-3)GlcNAc(b1-3)Gal(b1-4)[Fuc(a1-3)]GlcNAc(b1-6)[Gal(b1-3)GlcNAc(b1-3)]Gal(b1-4)Glc", "outline": "as §1"}, "[13]": {"target": "Gal(b1-3)GlcNAc(b1-3)GalNAc", "outline": "as §1"}, "[14]": {"target": "Gal(b1-3)GlcNAc(b1-6)Gal(b1-4)GlcNAc", "outline": "as §1"}, "[15]": {"target": "Gal(b1-3)GlcNAc(b1-6)GalNAc", "outline": "as §1"}, "[16]": {"target": "Gal(b1-3)GlcNAc(b1-6)[Gal(b1-3)]GalNAc", "outline": "as §1"}, "[17]": {"target": "Gal(b1-3)GlcNAc6S", "outline": "as §1"}, "[18]": {"target": "Gal(b1-3)[Fuc(a1-4)]GlcNAc", "outline": "as §1"}, "[19]": {"target": "Gal(b1-3)[Fuc(a1-4)]GlcNAc(b1-2)Man", "outline": "as §1"}, "[20]": {"target": "Gal(b1-3)[Fuc(a1-4)]GlcNAc(b1-2)Man(a1-3)[Gal(b1-3)[Fuc(a1-4)]GlcNAc(b1-2)Man(a1-6)]Man(b1-4)GlcNAc(b1-4)[Fuc(a1-6)]GlcNAc", "outline": "as §1"}, "[21]": {"target": "Gal(b1-3)[Fuc(a1-4)]GlcNAc(b1-3)Gal(b1-3)[Fuc(a1-4)]GlcNAc", "outline": "as §1"}, "[22]": {"target": "Gal(b1-3)[Fuc(a1-4)]GlcNAc(b1-3)Gal(b1-4)[Fuc(a1-3)]GlcNAc", "outline": "as §1"}, "[23]": {"target": "Gal(b1-3)[Fuc(a1-4)]GlcNAc(b1-6)GalNAc", "outline": "as §1"}, "[24]": {"target": "Gal(b1-3)[GlcNAc(b1-6)]GalNAc", "outline": "as §1"}, "[25]": {"target": "Gal(b1-3)[Neu5Ac(a2-6)]GalNAc", "outline": "as §1"}, "[26]": {"target": "Gal(b1-3)[Neu5Ac(a2-6)]GlcNAc(b1-4)Gal(b1-4)Glc", "outline": "as §1"}, "[27]": {"target": "Gal(b1-3)[Neu5Ac(b2-6)]GalNAc", "outline": "as §1"}, "[28]": {"target": "Gal(b1-4)Gal", "outline": "as §1"}, "[29]": {"target": "Gal(b1-4)GalNAc(a1-3)[Fuc(a1-2)]Gal(b1-4)GlcNAc", "outline": "as §1"}, "[30]": {"target": "Gal(b1-4)GalNAc(b1-3)[Fuc(a1-2)]Gal(b1-4)GlcNAc", "outline": "as §1"}, "[31]": {"target": "Gal(b1-4)Glc", "outline": "as §1"}, "[32]": {"target": "Gal(b1-4)Glc6S", "outline": "as §1"}, "[33]": {"target": "Gal(b1-4)GlcNAc", "outline": "as §1"}, "[34]": {"target": "Gal(b1-4)GlcNAc(a1-6)Gal(b1-4)GlcNAc", "outline": "as §1"}, "[35]": {"target": "Gal(b1-4)GlcNAc(b1-2)Man", "outline": "as §1"}, "[36]": {"target": "Gal(b1-4)GlcNAc(b1-2)Man(a1-3)Man(b1-4)GlcNAc(b1-4)GlcNAc", "outline": "as §1"}, "[37]": {"target": "Gal(b1-4)GlcNAc(b1-2)Man(a1-3)[Gal(b1-4)GlcNAc(b1-2)Man(a1-6)]Man(b1-4)GlcNAc(b1-4)GlcNAc", "outline": "as §1"}},
  "note": "The other results are listed elsewhere or left out.",
  "data": [
    {"binder": "B1", "values": [
      {"measurement": "glycan array binding signal (z-score)", "setting": "[1]", "value": 0.19},
      {"measurement": "glycan array binding signal (z-score)", "setting": "[2]", "value": -0.99},
      {"measurement": "glycan array binding signal (z-score)", "setting": "[3]", "value": 0.673},
      {"measurement": "glycan array binding signal (z-score)", "setting": "[4]", "value": -0.423},
      {"measurement": "glycan array binding signal (z-score)", "setting": "[5]", "value": -0.563},
      {"measurement": "glycan array binding signal (z-score)", "setting": "[6]", "value": 0.371},
      {"measurement": "glycan array binding signal (z-score)", "setting": "[7]", "value": -0.845},
      {"measurement": "glycan array binding signal (z-score)", "setting": "[8]", "value": 1.32},
      {"measurement": "glycan array binding signal (z-score)", "setting": "[9]", "value": 1.49},
      {"measurement": "glycan array binding signal (z-score)", "setting": "[10]", "value": -0.902},
      {"measurement": "glycan array binding signal (z-score)", "setting": "[11]", "value": 0.758},
      {"measurement": "glycan array binding signal (z-score)", "setting": "[12]", "value": -1.27},
      {"measurement": "glycan array binding signal (z-score)", "setting": "[13]", "value": -1.15},
      {"measurement": "glycan array binding signal (z-score)", "setting": "[14]", "value": -1.08},
      {"measurement": "glycan array binding signal (z-score)", "setting": "[15]", "value": 0.548},
      {"measurement": "glycan array binding signal (z-score)", "setting": "[16]", "value": -0.999},
      {"measurement": "glycan array binding signal (z-score)", "setting": "[17]", "value": 1.62},
      {"measurement": "glycan array binding signal (z-score)", "setting": "[18]", "value": 1.03},
      {"measurement": "glycan array binding signal (z-score)", "setting": "[19]", "value": 0.254},
      {"measurement": "glycan array binding signal (z-score)", "setting": "[20]", "value": 1.62},
      {"measurement": "glycan array binding signal (z-score)", "setting": "[21]", "value": -0.619},
      {"measurement": "glycan array binding signal (z-score)", "setting": "[22]", "value": -0.545},
      {"measurement": "glycan array binding signal (z-score)", "setting": "[23]", "value": 2.34},
      {"measurement": "glycan array binding signal (z-score)", "setting": "[24]", "value": 0.25},
      {"measurement": "glycan array binding signal (z-score)", "setting": "[25]", "value": -0.786},
      {"measurement": "glycan array binding signal (z-score)", "setting": "[26]", "value": -0.215},
      {"measurement": "glycan array binding signal (z-score)", "setting": "[27]", "value": -0.581},
      {"measurement": "glycan array binding signal (z-score)", "setting": "[28]", "value": 1.07},
      {"measurement": "glycan array binding signal (z-score)", "setting": "[29]", "value": -0.55},
      {"measurement": "glycan array binding signal (z-score)", "setting": "[30]", "value": -0.273},
      {"measurement": "glycan array binding signal (z-score)", "setting": "[31]", "value": -0.232},
      {"measurement": "glycan array binding signal (z-score)", "setting": "[32]", "value": 0.582},
      {"measurement": "glycan array binding signal (z-score)", "setting": "[33]", "value": -0.466},
      {"measurement": "glycan array binding signal (z-score)", "setting": "[34]", "value": 0.567},
      {"measurement": "glycan array binding signal (z-score)", "setting": "[35]", "value": -0.691},
      {"measurement": "glycan array binding signal (z-score)", "setting": "[36]", "value": 0.019},
      {"measurement": "glycan array binding signal (z-score)", "setting": "[37]", "value": -0.222}
    ]}
  ]
}
